# Source: patent US6566081B1, “Methods of identifying a compound which modulates the non-transcriptional non-map-kinase induced effects of steroid hormones” (The Brigham and Women's Hospital, Inc., priority 1999, dated 2003)
# Entries after “also recorded” stand apart in the source; their conditions may differ. At least one compound was matched to its structure with a doubt left.
# Experiments:
# [1] = system: NO release; test: Nitrite assay (NO accumulation from endothelial cells); type: cell-based, human; details: E2 10 nM 30 min; ICI 10 μM, wortmannin 30 nM
# Description: NO accumulation from serum-starved endothelial cells was determined by a modified nitrite assay using 2, 3 diaminonaphtalene as described previously.^33 Fluorescence of 1-(H)-naphtotriazole was measured with excitation and emission wavelengths of 365 and 450 nm, respectively. Standard curves were constructed with known amounts of sodium nitrite. Nonspecific fluorescence was determined in the presence of LNMA (3 mM).
# [2] = system: PI3-kinase; test: PI3-kinase assay on p85 immunoprecipitates of endothelial cell lysates; type: cell-based, human; details: wortmannin 30 nM
# Description: PI3kinase activity in endothelial cell lysates was assayed using the borate thin layer chromatography method, as described.^34 Following a 6 h incubation in serum- and estrogen-deficient medium 199, endothelial cells were treated according to the indicated conditions, washed, and harvested in ice-cold lysis buffer (137 mM NaCl, 20 mM Tris-HCl, pH 7.4, 1 mM CaCl2, 1 mM Mg Cl2, 0.1 mM Na3VO4, 1% NP-40). After pelleting the cell debris, the supernatant was incubated for 1 hour at 4° C. with 5 μL of a rabbit antiserum directed against the p85 regulatory subunit of the PI3-kinase (Upstate Biotechnology, Lake Placid, N.Y.), and immunoprecipitated with the addition of 50 μL of a 1:1 slurry of protein A-agarose for 1 hour at 4° C. Following centrifugation, the immunoprecipitates were washed three times with lysis buffer, three times with 0.1 M Tris-HCl, pH 7.4, 5 mM LiCl, 0.1 mM Na3VO4, followed by two washes with 10 mM Tris-HCl, pH 7.4, 150 mM NaCl, 5 mM EDTA, 0.1 mM Na3VO4.
# The immunoprecipitates were then mixed with 50 μL Tris-HCl, pH 7.4, 150 mM NaCl, 5 mM EDTA, 20 μg of phosphatidylinositol (Sigma, Saint Louis, Mo.), 10 μL 100 mM MgCl2 and 5 μL of a 0.88 mM ATP, 20 mM MgCl2 solution, containing 30 μCi of [γ-^32P]ATP (3000 Ci/mmol; NEN Life Science Products, Boston, Mass.). […] The phospholipids were extracted with 160 μL of chloroform/methanol (1:1, v/v). […]
smiles,measurement,setting,value
COC[C@H]1OC(=O)c2coc3c2[C@@]1(C)C1=C(C3=O)[C@@H]2CCC(=O)[C@@]2(C)C[C@H]1OC(C)=O [wortmannin],effect on E2-induced NO release / production,[1],prevent
same,effect on E2-induced PI3-kinase activation,"[2]; E2 10 nM 20 min, ICI 10 μM",completely blocked; also recorded: full inhibition; also recorded: completely inhibited
same,effect on insulin-induced PI3-kinase activation,[2]; insulin 100 nM,blocked; also recorded: completely inhibited
